Test results as given in PubChem BioAssay AID901 (National Center for Advancing Translational Sciences (NCATS), 2007).
The list shows a part of the results. These are further read-outs of the screen, such as a control signal, another cell line or another target. No call is given for them. Compounds called inactive in the main read-out are mostly missing here. The note in brackets gives the kind of curve behind each potency; many fits are weak.

Assay: qHTS Assay for Identifying the Cell-Membrane Permeable IMPase Inhibitors
Settings: CHO-M1 cells, IP1 accumulation, HTRF TR-FRET ratio; measured here: donor channel 620 nm AC50
For COc1ccc(-c2c(C(C)=O)c(C)nc3sc4c(c23)NC(c2ccccc2)NC4=O)cc1 (configuration not stated), the AC50 was 12.6 µM [rising, single point].
With CC1=C(C(=O)NCc2ccccc2)C(c2cccs2)n2ncnc2N1 (configuration not stated) the AC50 was 5.01 µM [falling, partial curve, poor fit].
For CCOc1ccc(NC(c2ccc(Cl)cc2)c2nnc(-c3cccc(F)c3)o2)cc1 (configuration not stated), the AC50 was 4.47 µM [falling, partial curve].
In the case of COc1cccc(CNCCc2c[nH]c3ccccc23)c1OCc1ccccc1F, the AC50 was 31.6 µM [rising, single point].
For CCCCNC(=O)CSc1nc(-c2ccc(OC)cc2)cc(C(F)(F)F)n1, the AC50 was 0.282 µM [falling, full curve].
In the case of CCOC(=O)CN(Cc1ccccc1)S(=O)(=O)c1ccc(NC(C)=O)cc1, the AC50 was 0.0126 µM [rising, partial curve, poor fit].
For COC(=O)c1c(NC(=O)c2ccoc2C)sc2c1CCC2, the AC50 was 31.6 µM [rising, single point].
In the case of N#CCCn1nnc2ccccc21, the AC50 was 0.631 µM [falling, full curve, poor fit].
For CCC(=O)Nc1nnc(Cc2ccccc2)s1, the AC50 was 0.282 µM [rising, full curve].
In the case of CCCCc1c(C)nn(-c2nnc3c4ccccc4n(CC)c3n2)c1C, the AC50 was 6.31 µM [rising, single point].
In the case of CC(=O)c1c(C)[nH]c(C(=O)N2CCc3ccccc32)c1C, the AC50 was 12.6 µM [falling, single point].
In the case of CN(C)c1cc2c(c(N(C)C)c1)C(=O)c1ccccc1C2=O, the AC50 was 12.6 µM [falling, single point].
For O=C(c1ccco1)c1cc2c(ccc3ccccc32)oc1=O, the AC50 was 1.58 µM [falling, partial curve].
For COc1ccc(OCC(=O)Nc2ccc(S(=O)(=O)Nc3cc(C)nc(C)n3)cc2)cc1, the AC50 was 0.501 µM [falling, full curve].
With CCOCCn1c(CN2CCC(Cc3ccccc3)CC2)nc2c1c(=O)n(C)c(=O)n2C the AC50 was 0.00501 µM [rising, full curve, poor fit].
For Cn1c(=O)[nH]c2ncn(C)c2c1=O, the AC50 was 31.6 µM [falling, single point].
In the case of CCOC(=O)C1CCCN(C(=O)c2cc(-c3ccccc3)on2)C1 (configuration not stated), the AC50 was 2.82 µM [falling, partial curve, poor fit].
For Cc1onc(-c2ccccc2Cl)c1C(=O)Nc1nnc(-c2ccc(Br)cc2)s1, the AC50 was 0.0355 µM [rising, full curve, poor fit].
With O=C(NCC1CCCO1)c1ccc(NC(=O)C2CC=CCC2C(=O)O)cc1 (configuration not stated) the AC50 was 0.631 µM [falling, full curve, poor fit].
In the case of Nc1ccc(Nc2ccncc2[N+](=O)[O-])cc1, the AC50 was 10 µM [falling, partial curve, poor fit].
In the case of COc1ccc(C(=O)NCc2nnc(SCC(=O)NCc3ccc(F)cc3)o2)cc1, the AC50 was 12.6 µM [falling, single point].
With COc1ccc(S(=O)(=O)N2CCCC(C(=O)NCc3ccncc3)C2)cc1Cl (configuration not stated) the AC50 was 2.82 µM [rising, single point].
With C=CCN1C(c2ccccc2)=CS/C1=C(\C#N)c1nnc2n1CCCCC2 the AC50 was 3.98 µM [falling, full curve, poor fit].
In the case of O=C(Nc1cccc(Cl)c1Cl)C1CCN(c2ncccn2)CC1, the AC50 was 15.8 µM [falling, single point].
In the case of CN(C)[C@@H]1C(=O)C(C(N)=O)=C(O)[C@]2(O)C(=O)C3=C(O)c4c(O)ccc(Cl)c4[C@H](O)[C@H]3C[C@@H]12, the AC50 was 2.51 µM [rising, single point].
With CC(=O)Nc1ccc(N2C(C(C)=O)=NN(c3ccc(Cl)cc3)C2c2sccc2C)cc1 (configuration not stated) the AC50 was 0.158 µM [falling, full curve].
For Cc1ccc(CSC2=NCCN2C(=O)c2ccco2)cc1, the AC50 was 0.316 µM [rising, full curve].
In the case of CCOC(=O)CSc1nnc(C)n1N, the AC50 was 31.6 µM [falling, single point].
In the case of O=C(COc1ccc(S(=O)(=O)N2CCCC2)cc1Cl)NCc1ccco1, the AC50 was 3.16 µM [falling, partial curve].
In the case of CCOC(=O)N1CCN(c2cc(NCCC(=O)O)c3c4c(onc24)-c2ccccc2C3=O)CC1, the AC50 was 12.6 µM [falling, partial curve].
For CCCn1nnc(NC(=O)c2cc(Br)ccc2OC)n1, the AC50 was 17.8 µM [falling, single point].
For CCOc1ccc(/C(O)=C2\C(=O)C(=O)N(c3cc(C)on3)C2c2ccccc2OC)cc1 (configuration not stated), the AC50 was 15.8 µM [rising, single point].
With CC1(C(=O)NC2CCCC2)CCC(=O)N1Cc1ccccc1 (configuration not stated) the AC50 was 0.316 µM [rising, partial curve, poor fit].
For Cc1ccccc1-c1nnc(SCC(=O)N2CCCc3ccccc32)o1, the AC50 was 0.002 µM [falling, full curve, poor fit].
In the case of COc1cc2c(C(=O)NCc3ccccn3)cn(CC(C)C)c(=O)c2cc1OC, the AC50 was 35.5 µM [falling, single point].
For CCOC(=O)c1nnc(-c2ccccc2)o1, the AC50 was 1.26 µM [falling, full curve, poor fit].
For COc1ccc(-c2nc(CCNC(=O)c3ccco3)cs2)cc1OC, the AC50 was 22.4 µM [falling, partial curve, poor fit].
For Cn1c(=O)cc(SCC(=O)N2CCOCC2)c2ccc(Cl)cc21, the AC50 was 14.1 µM [rising, partial curve, poor fit].
In the case of Cc1nn(-c2ccccc2)c(C)c1/C=N/NC(=O)CSc1nc2ccccc2c(=O)n1-c1ccc(Br)cc1, the AC50 was 5.01 µM [falling, single point].
In the case of COCCN(C(=O)CNC(=O)c1ccco1)C(C(=O)NC1CCCCC1)c1cccs1 (configuration not stated), the AC50 was 0.0794 µM [falling, full curve, poor fit].
With CCOC(=O)c1cccc(NC(=O)CSc2nnnn2CC)c1 the AC50 was 6.31 µM [falling, partial curve, poor fit].
In the case of COc1ccc(OC)c(-n2c(-c3ccc(C)cc3)n[nH]c2=S)c1, the AC50 was 3.98 µM [rising, partial curve, poor fit].
